The target in assay [1] is T1, Flag-tagged human NAB1 K480R mutant (human) (UniProt Q13506).
T1 sequence: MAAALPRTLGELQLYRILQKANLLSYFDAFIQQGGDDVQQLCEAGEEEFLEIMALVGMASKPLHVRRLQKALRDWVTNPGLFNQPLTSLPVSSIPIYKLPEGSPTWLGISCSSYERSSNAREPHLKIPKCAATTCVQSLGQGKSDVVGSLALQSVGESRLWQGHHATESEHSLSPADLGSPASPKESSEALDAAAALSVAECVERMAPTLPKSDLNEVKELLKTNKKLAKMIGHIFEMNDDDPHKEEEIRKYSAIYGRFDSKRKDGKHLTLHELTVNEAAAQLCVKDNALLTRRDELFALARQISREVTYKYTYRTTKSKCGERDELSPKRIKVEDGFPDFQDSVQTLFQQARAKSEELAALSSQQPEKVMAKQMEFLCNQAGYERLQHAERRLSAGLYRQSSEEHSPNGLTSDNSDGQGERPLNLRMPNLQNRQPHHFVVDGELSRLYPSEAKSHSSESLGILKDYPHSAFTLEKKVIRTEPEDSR
Kind of assay: co-IP; Flag-NAB1 (WT or K480R) and HA-HDAC2 co-transfected in HEK293T cells; IP with anti-Flag M2 beads; Western blot with anti-Flag and anti-HA. A general note: A western blot detects proteins with antibodies after separation by electrophoresis.

By UniProt entry, the sequences of proteins in these tests, tags left out.
UniProt Q92769: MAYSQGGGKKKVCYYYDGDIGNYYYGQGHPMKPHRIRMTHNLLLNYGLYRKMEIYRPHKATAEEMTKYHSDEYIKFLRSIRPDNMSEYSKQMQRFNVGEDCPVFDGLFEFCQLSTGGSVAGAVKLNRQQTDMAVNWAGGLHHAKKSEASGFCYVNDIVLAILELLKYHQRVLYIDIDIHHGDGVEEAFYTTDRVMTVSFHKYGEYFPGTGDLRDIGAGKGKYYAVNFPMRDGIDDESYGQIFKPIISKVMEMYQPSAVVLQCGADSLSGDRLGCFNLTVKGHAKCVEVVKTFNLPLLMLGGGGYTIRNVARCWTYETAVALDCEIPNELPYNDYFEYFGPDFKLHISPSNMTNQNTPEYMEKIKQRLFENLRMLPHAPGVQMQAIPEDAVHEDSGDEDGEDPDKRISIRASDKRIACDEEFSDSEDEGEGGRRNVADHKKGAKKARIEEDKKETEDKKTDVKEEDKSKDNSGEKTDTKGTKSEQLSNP

In assay [2] the target is T2, Flag-tagged human NAB1 (NGFI-A binding protein 1), wild type (human) (UniProt Q13506).
T2 sequence: T1 sequence with R480K
Described as above.

Residue numbers refer to the chain shown, from its start. Results are given in words; binding and its absence hold for the method and conditions named. In cells and extracts the contact can be indirect. Some binding calls cover weakened binding; strength is not graded here. Sequences can lack the tags named with a protein.

Take HA-HDAC2 (from UniProt Q92769 1-488): the binding entry in assay [1] and in assay [2] was “binds” each time.
